# Measurements reported in PubChem BioAssay AID493246 (Drosophila RNAi Screening Center, 2011)
# Aim: 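Identify essential fly genes by loss of cell viability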 (primary screen)
# Cell system: Drosophila Kc and S2R+ cells
# Reagent: long dsRNA against Drosophila genes
# Detection: 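Cell number per well after knock-down, printed as raw plate values; calls were based on per-plate z-scores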
# Direction: Kc cell number and S2R+ cell number: higher = more cells remaining
# Call rule: 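Active when the per-plate z-score of cell number is 3 or more in the direction of fewer cells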
# In all, the deposit lists about 21,000 reagents; shown is an unselected part of those that have a named target and a result. Of all reagents, 429 (2%) were called active. 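Values are raw and not normalised between plates; calls rest on per-plate z-scores that were not deposited.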 A number with no mark means an inactive call. Names joined by + are all predicted targets of the reagent. Not given: the amount of reagent, the time to read-out.
gene knocked down,DRSC id,"Kc cell number, rep 1","Kc cell number, rep 2","S2R+ cell number, rep 1","S2R+ cell number, rep 2"
CG1835 (GeneID 33057),DRSC20560,1.43e6,1.44e6,1.04e6,1.14e6
Rabex-5 (GeneID 38144),DRSC08628,1.39e6,1.47e6,1.16e6,1.13e6
Dbp21E2 (GeneID 33254),DRSC00616,1.29e6,1.33e6,7.97e5,9.45e5
CG43999 (GeneID 42827),DRSC14605,1.55e6,1.63e6,9.71e5,1.12e6
Naa20A (GeneID 32962),DRSC19579,1.57e6,1.70e6,1.04e6,1.20e6
aqrs (GeneID 43396),DRSC14724,1.49e6,1.51e6,1.05e6,1.10e6
CG14693 (GeneID 41299),DRSC14916,1.62e6,1.70e6,1.43e6,1.55e6
CG11122 (GeneID 32046),DRSC19382,5.64e5,,8.67e5,
CG31788 (GeneID 318942),DRSC01630,1.58e6,1.65e6,9.79e5,1.25e6
CG13198 (GeneID 36245),DRSC06323,1.50e6,1.56e6,1.27e6,1.39e6
Tsen54 (GeneID 39397),DRSC10527,1.47e6,1.52e6,1.41e6,1.45e6
CG14762 (GeneID 35768),DRSC05073,1.44e6,1.42e6,9.67e5,1.04e6
CG14762 (GeneID 35768),DRSC06496,1.45e6,1.59e6,1.19e6,1.28e6
CG31886 (GeneID 326170),DRSC03248,1.33e6,1.37e6,1.02e6,1.06e6
Corp (GeneID 31764),DRSC17771,5.76e5,,9.25e5,
Sgs5 (GeneID 42114),DRSC16862,1.43e6,1.58e6,1.04e6,1.14e6
tap (GeneID 39935),DRSC11402,1.54e6,1.47e6,1.15e6,1.28e6
AttA (GeneID 36636),DRSC05926,1.60e6,1.68e6,1.27e6,1.17e6
Ubc4 (GeneID 39133),DRSC11312,1.48e6,1.46e6,1.44e6,1.35e6
Rcd7 (GeneID 40126),DRSC10100,1.33e6,1.43e6,1.18e6,1.26e6
CG11449 (GeneID 40467),DRSC11662,1.64e6,1.59e6,1.37e6,1.46e6
Fem-1 (GeneID 37344),DRSC07322,1.53e6,1.39e6,9.00e5,1.13e6
Klp61F (GeneID 38135),DRSC08671,1.31e6,1.26e6,6.39e5,8.18e5
sty (GeneID 38424),DRSC08737,1.58e6,1.44e6,1.08e6,1.37e6
stx (GeneID 32005),DRSC18442,7.73e5 (active),8.89e5,6.23e5,7.26e5
stx (GeneID 32005),DRSC18443,1.53e6,1.53e6,8.95e5,1.02e6
CG4372 (GeneID 37490),DRSC04466,1.50e6,1.62e6,1.28e6,3.48e5
EMC8-9 (GeneID 37635),DRSC04380,1.24e6,1.26e6,1.12e6,1.17e6

Reformatted: results already given
| gene knocked down | DRSC id | Kc cell number, rep 1 | Kc cell number, rep 2 | S2R+ cell number, rep 1 | S2R+ cell number, rep 2 |
| --- | --- | --- | --- | --- | --- |
| Dbp21E2 (GeneID 33254) | DRSC00616 | 1.29e6 | 1.33e6 | 7.97e5 | 9.45e5 |
| CG43999 (GeneID 42827) | DRSC14605 | 1.55e6 | 1.63e6 | 9.71e5 | 1.12e6 |
| Naa20A (GeneID 32962) | DRSC19579 | 1.57e6 | 1.70e6 | 1.04e6 | 1.20e6 |
| aqrs (GeneID 43396) | DRSC14724 | 1.49e6 | 1.51e6 | 1.05e6 | 1.10e6 |
| CG14693 (GeneID 41299) | DRSC14916 | 1.62e6 | 1.70e6 | 1.43e6 | 1.55e6 |
| CG11122 (GeneID 32046) | DRSC19382 | 5.64e5 | – | 8.67e5 | – |
| CG31788 (GeneID 318942) | DRSC01630 | 1.58e6 | 1.65e6 | 9.79e5 | 1.25e6 |
| CG13198 (GeneID 36245) | DRSC06323 | 1.50e6 | 1.56e6 | 1.27e6 | 1.39e6 |
| Tsen54 (GeneID 39397) | DRSC10527 | 1.47e6 | 1.52e6 | 1.41e6 | 1.45e6 |

Additional entries follow:
gene knocked down,DRSC id,"Kc cell number, rep 1","Kc cell number, rep 2","S2R+ cell number, rep 1","S2R+ cell number, rep 2"
CSN7 (GeneID 35816),DRSC06807,1.24e6,1.31e6,6.67e5,8.07e5
CSN7 (GeneID 35816),DRSC06808,1.81e6,1.76e6,8.99e5,1.06e6
Vps13 (GeneID 35693),DRSC06817,1.58e6,1.63e6,1.33e6,1.45e6
Pif2 (GeneID 170876),DRSC12525,1.50e6,1.60e6,1.25e6,1.32e6
CG33303 (GeneID 2768916),DRSC02848,1.52e6,1.68e6,1.31e6,1.48e6
Dscam1 (GeneID 35652),DRSC05047,1.43e6,1.49e6,9.52e5,1.05e6
Dscam1 (GeneID 35652),DRSC05048,1.43e6,1.49e6,1.02e6,1.06e6
Dscam1 (GeneID 35652),DRSC07407,1.49e6,1.58e6,1.24e6,1.31e6
CG34176 (GeneID 5740391),DRSC00435,1.67e6,1.57e6,1.22e6,1.41e6
RhoGAP1A (GeneID 5740235),DRSC20649,1.44e6,1.49e6,1.02e6,1.12e6
RhoGAP1A (GeneID 5740235),DRSC20651,1.43e6,1.50e6,9.74e5,1.12e6
Chrac-16 (GeneID 32166),DRSC20343,1.88e6,1.84e6,8.67e5,9.66e5
CG8677 + CG31626,DRSC01838,1.60e6,1.63e6,1.11e6,1.17e6
CG9068 (GeneID 36817),DRSC07329,1.63e6,1.59e6,1.20e6,1.28e6
CG11630 (GeneID 35429),DRSC03696,1.54e6,1.60e6,1.26e6,3.08e5
Ir94g (GeneID 42768),DRSC15231,1.50e6,1.55e6,1.08e6,1.20e6
CG6791 (GeneID 41391),DRSC16118,1.76e6,1.82e6,1.21e6,1.31e6
pk (GeneID 45343),DRSC06178,1.55e6,1.61e6,1.32e6,1.45e6
pk (GeneID 45343),DRSC07664,1.64e6,1.81e6,1.33e6,1.44e6
pwn (GeneID 44011),DRSC06035,1.55e6,1.58e6,1.24e6,1.38e6
Gr59b (GeneID 117484),DRSC04179,1.73e6,1.81e6,1.45e6,1.57e6
Naa60 (GeneID 39142),DRSC10301,1.33e6,1.26e6,1.26e6,1.40e6
Flacc (GeneID 32886),DRSC20040,1.77e6,1.84e6,1.03e6,1.24e6
CG17751 (GeneID 42336),DRSC15261,1.35e6,1.48e6,1.06e6,1.10e6
eag (GeneID 32428),DRSC19067,1.35e6,1.70e6,1.10e6,1.22e6
eag (GeneID 32428),DRSC20328,1.57e6,1.53e6,1.07e6,1.20e6
Nepl10 (GeneID 36366),DRSC07212,1.74e6,1.89e6,1.42e6,1.60e6
Iru (GeneID 41080),DRSC14457,1.45e6,1.51e6,1.18e6,1.24e6
Srp14 (GeneID 42436),DRSC15797,1.35e6,1.34e6,1.05e6,1.14e6
CG18823 (GeneID 59184),DRSC18168,1.65e6,1.65e6,1.08e6,1.19e6
CG5089 (GeneID 36859),DRSC06914,1.35e6,1.45e6,1.19e6,1.19e6
